Laboratory results reported in US20200354411A1, “Chimeric Molecule for Targeting c-Myc in Cells” (priority 2017, published 2020).
The name of at least one read-out is uncertain. Some entries share one result that the patent states for a list of compounds.

Test system: c-Myc
Test: E-Box luciferase reporter, c-Myc transcriptional activity in A431 cells
Assay type: cell-based
Description: All cell lines come from ATCC. Lentiviruses were generated according to the manufacturer's instructions (Invitrogen). WT A431 cells were transduced with Cignal Lenti Myc Reporter (Qiagen) expressing Luciferase upon E-Box promoter and CMV-Renilla Control CLS-RCL expressing Renilla upon CMV promoter. Single clone was selected after colony isolation and Luciferase/Renilla expression level tested. All cell lines (A431 and HepG2) were maintained in high-glucose Dulbecco's modified Eagle's medium supplemented with 10% foetal calf serum at 37° C. in a 10% CO2 incubator. All experiments were performed on cells passaged fewer than 10 times after thawing.
40,000 A431-Ebox-luc-CMV-Ren cells were seeded in a 96-well plate (Falcon) 48 hours. Luminescence is detected using the Promega Dual-Glo luciferase assay system, according to the manufacturer's protocol and read using Tecan Infinite M200 microplate reader using 100 ms integration time. […]

Substance: cell targeting peptide Antenapedia fused to H1: RQIKIWFQNRRMKWKK NELKRAFAALRDQI [Int-H1, reference compound]
- decrease in Myc reporter activity (400 μM): < 75%

Substance: cell targeting peptide Cadherin fused to H1: LLIILLRRRIRKQAHAHSK NELKRAFAALRDQI [CAD-H1, reference compound]
- decrease in Myc reporter activity (150 μM): < 75%

Substance: tPE-Omomyc: fusion protein: PE domains Ia and II genetically fused to Omomyc peptide, SEQ ID NO: 15
- EC50 lower than that of tPE-H1 (6 hours incubation): 5 times
